Four substances from paper PMC4450067 (PLoS Pathogens, 2015) can be followed below.

By UniProt entry, the sequences of proteins in these tests, tags left out. Where a name states a change or a piece, a line headed by the entry shows the natural chain unless it says otherwise. Chains listed by the source or under a name are the forms on record and can include a tag or linker.
EGFP-USP10(1-40)-F10A (Q14694-1, form named): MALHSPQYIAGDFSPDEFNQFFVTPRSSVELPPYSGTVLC
EGFP-USP10(1-40)-F13A (Q14694-1, form named): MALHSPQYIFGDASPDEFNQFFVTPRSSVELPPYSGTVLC
EGFP-USP10(1-40)-G11A (Q14694-1, form named): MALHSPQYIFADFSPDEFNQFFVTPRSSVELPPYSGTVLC
UniProt A0A9J7JVX0: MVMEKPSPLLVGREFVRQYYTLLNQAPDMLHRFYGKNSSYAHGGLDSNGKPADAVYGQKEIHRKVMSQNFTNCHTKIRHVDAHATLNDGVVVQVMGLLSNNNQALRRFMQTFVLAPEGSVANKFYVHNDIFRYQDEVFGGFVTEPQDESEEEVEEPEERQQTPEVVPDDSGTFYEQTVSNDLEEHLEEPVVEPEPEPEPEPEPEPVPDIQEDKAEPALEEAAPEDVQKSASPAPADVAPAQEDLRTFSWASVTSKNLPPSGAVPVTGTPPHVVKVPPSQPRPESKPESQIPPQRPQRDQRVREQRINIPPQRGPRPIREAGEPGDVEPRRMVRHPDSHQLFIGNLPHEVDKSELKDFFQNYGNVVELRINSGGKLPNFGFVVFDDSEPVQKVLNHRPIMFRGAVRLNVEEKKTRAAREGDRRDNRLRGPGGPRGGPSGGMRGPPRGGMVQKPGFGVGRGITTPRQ

These are yes or no findings as the source states them, for the method shown. In cells and extracts the contact can be indirect.

Holding throughout (test): co-IP
Test [1] has as its target G3BP-1 (Ras-GAP SH3 domain-binding protein 1), endogenous in BHK cells (hamster (endogenous in BHK)).
For test [2], the target named is EGFP-USP10(1-40)-F10A (human) (UniProt Q14694).
The target in test [3] is EGFP-USP10(1-40)-F13A (human) (UniProt Q14694).
Test [4] concerns the target EGFP-USP10(1-40)-G11A (human) (UniProt Q14694).

“EGFP-USP10(1-40)-F10A (from UniProt Q14694-1 1-40) (domain or fragment)”: the binding result in test [1] is reported as “no binding”.
As for “EGFP-USP10(1-40)-F13A (from UniProt Q14694-1 1-40) (domain or fragment)”, the binding entry in test [1] is given as “no binding”.
Consider “G3BP-1 (Ras-GAP SH3 domain-binding protein 1), endogenous in BHK cells (from UniProt A0A9J7JVX0 1-465)”, for which the binding result in test [2], in test [3] and in test [4] was “no binding” each time.
For the substance “EGFP-USP10(1-40)-G11A (from UniProt Q14694-1 1-40) (domain or fragment)”, the binding entry in test [1] was “no binding”.
